Assay results published in the supplement of paper PMC11006884.
Shown are results outside the selection of targets with a hit, which stands elsewhere. Single values of this set are uncertain. This is a selection; strong and weak results do not stand in their true shares.

Sequences of proteins named here, by UniProt entry; tags and fusion partners are left off. A change or cut given only in a name is not applied to a line headed by its entry.
UniProt Q9UM54, whole entry, looked up: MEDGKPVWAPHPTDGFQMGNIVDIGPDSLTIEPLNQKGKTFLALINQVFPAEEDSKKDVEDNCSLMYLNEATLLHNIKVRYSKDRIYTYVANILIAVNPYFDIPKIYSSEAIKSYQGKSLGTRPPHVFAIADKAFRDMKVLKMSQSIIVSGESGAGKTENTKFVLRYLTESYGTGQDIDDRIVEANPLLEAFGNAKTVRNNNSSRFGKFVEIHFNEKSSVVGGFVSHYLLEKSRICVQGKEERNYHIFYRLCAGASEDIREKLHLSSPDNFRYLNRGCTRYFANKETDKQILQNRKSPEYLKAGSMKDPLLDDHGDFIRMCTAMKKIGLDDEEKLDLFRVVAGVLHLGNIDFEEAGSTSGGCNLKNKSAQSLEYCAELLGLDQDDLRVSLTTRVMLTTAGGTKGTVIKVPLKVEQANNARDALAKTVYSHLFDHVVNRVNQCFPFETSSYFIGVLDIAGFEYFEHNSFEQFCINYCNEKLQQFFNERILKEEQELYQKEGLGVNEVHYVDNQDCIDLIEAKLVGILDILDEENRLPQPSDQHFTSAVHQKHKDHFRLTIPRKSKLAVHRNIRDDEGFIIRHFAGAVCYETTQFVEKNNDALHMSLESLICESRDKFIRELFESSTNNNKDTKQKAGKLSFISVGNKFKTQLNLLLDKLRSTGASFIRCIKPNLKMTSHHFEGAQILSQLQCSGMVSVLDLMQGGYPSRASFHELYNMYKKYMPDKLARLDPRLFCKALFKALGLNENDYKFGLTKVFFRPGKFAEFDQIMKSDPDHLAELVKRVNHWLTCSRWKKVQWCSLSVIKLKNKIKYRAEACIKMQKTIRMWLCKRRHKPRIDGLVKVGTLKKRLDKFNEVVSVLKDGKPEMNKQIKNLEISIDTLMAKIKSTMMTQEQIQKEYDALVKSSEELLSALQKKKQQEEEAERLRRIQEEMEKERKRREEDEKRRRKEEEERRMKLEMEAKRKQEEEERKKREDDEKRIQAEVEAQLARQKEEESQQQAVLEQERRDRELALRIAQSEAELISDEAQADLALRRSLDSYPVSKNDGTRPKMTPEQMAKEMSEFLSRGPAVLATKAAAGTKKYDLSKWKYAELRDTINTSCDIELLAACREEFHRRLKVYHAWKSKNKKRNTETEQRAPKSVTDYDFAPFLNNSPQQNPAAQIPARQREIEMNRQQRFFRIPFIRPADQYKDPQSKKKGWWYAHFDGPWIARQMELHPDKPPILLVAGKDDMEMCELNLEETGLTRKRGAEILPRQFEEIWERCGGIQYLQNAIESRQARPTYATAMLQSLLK
UniProt Q9UII4: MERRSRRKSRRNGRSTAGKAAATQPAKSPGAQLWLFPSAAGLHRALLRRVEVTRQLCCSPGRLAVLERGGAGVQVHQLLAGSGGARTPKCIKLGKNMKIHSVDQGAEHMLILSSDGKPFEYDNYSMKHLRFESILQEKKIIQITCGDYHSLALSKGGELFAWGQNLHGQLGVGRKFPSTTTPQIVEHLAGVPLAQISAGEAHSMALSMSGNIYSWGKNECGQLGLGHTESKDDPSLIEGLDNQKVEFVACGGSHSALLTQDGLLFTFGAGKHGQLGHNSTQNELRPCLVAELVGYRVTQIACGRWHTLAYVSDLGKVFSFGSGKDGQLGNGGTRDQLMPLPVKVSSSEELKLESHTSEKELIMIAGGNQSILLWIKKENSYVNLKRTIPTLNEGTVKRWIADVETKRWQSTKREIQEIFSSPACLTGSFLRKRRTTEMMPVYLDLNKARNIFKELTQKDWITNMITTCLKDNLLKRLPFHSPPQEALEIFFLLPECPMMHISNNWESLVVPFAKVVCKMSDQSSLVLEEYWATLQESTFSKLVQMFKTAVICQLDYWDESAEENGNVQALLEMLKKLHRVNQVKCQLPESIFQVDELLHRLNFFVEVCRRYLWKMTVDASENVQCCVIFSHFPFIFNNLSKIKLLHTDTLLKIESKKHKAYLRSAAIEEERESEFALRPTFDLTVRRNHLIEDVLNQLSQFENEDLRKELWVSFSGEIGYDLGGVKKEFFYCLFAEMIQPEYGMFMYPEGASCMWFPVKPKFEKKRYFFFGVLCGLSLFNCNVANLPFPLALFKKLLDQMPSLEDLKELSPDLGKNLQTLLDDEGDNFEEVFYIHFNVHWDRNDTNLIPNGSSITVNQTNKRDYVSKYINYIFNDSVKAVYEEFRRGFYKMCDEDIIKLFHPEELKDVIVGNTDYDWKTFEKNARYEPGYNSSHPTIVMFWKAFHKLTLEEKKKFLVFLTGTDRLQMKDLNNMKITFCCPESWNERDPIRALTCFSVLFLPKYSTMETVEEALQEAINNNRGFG
UniProt Q9Y2X3: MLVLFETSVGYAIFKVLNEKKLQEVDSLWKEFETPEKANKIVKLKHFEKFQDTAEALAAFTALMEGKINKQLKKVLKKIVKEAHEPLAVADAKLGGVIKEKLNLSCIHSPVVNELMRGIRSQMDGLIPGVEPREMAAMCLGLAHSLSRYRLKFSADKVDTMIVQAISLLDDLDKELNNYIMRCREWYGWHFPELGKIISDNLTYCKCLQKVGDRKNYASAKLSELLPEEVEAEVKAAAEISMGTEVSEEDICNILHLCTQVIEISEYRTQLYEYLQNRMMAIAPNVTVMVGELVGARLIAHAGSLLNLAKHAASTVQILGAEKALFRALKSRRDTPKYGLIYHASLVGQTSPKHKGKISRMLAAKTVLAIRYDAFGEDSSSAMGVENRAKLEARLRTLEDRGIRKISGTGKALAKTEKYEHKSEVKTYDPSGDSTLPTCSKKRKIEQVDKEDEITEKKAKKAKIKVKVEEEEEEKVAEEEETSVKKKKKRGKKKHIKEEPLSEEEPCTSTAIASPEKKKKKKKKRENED
UniProt Q9Y2P8: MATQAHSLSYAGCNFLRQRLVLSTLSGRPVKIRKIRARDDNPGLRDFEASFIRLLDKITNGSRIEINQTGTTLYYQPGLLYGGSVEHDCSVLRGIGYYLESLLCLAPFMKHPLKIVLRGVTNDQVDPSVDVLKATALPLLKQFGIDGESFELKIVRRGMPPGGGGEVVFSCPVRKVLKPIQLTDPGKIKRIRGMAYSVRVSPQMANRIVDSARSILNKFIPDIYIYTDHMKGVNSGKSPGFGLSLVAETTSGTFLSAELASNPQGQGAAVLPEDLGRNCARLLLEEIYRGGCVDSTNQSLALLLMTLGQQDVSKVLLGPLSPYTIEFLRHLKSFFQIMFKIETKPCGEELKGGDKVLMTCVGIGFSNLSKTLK
UniProt Q9UPU5: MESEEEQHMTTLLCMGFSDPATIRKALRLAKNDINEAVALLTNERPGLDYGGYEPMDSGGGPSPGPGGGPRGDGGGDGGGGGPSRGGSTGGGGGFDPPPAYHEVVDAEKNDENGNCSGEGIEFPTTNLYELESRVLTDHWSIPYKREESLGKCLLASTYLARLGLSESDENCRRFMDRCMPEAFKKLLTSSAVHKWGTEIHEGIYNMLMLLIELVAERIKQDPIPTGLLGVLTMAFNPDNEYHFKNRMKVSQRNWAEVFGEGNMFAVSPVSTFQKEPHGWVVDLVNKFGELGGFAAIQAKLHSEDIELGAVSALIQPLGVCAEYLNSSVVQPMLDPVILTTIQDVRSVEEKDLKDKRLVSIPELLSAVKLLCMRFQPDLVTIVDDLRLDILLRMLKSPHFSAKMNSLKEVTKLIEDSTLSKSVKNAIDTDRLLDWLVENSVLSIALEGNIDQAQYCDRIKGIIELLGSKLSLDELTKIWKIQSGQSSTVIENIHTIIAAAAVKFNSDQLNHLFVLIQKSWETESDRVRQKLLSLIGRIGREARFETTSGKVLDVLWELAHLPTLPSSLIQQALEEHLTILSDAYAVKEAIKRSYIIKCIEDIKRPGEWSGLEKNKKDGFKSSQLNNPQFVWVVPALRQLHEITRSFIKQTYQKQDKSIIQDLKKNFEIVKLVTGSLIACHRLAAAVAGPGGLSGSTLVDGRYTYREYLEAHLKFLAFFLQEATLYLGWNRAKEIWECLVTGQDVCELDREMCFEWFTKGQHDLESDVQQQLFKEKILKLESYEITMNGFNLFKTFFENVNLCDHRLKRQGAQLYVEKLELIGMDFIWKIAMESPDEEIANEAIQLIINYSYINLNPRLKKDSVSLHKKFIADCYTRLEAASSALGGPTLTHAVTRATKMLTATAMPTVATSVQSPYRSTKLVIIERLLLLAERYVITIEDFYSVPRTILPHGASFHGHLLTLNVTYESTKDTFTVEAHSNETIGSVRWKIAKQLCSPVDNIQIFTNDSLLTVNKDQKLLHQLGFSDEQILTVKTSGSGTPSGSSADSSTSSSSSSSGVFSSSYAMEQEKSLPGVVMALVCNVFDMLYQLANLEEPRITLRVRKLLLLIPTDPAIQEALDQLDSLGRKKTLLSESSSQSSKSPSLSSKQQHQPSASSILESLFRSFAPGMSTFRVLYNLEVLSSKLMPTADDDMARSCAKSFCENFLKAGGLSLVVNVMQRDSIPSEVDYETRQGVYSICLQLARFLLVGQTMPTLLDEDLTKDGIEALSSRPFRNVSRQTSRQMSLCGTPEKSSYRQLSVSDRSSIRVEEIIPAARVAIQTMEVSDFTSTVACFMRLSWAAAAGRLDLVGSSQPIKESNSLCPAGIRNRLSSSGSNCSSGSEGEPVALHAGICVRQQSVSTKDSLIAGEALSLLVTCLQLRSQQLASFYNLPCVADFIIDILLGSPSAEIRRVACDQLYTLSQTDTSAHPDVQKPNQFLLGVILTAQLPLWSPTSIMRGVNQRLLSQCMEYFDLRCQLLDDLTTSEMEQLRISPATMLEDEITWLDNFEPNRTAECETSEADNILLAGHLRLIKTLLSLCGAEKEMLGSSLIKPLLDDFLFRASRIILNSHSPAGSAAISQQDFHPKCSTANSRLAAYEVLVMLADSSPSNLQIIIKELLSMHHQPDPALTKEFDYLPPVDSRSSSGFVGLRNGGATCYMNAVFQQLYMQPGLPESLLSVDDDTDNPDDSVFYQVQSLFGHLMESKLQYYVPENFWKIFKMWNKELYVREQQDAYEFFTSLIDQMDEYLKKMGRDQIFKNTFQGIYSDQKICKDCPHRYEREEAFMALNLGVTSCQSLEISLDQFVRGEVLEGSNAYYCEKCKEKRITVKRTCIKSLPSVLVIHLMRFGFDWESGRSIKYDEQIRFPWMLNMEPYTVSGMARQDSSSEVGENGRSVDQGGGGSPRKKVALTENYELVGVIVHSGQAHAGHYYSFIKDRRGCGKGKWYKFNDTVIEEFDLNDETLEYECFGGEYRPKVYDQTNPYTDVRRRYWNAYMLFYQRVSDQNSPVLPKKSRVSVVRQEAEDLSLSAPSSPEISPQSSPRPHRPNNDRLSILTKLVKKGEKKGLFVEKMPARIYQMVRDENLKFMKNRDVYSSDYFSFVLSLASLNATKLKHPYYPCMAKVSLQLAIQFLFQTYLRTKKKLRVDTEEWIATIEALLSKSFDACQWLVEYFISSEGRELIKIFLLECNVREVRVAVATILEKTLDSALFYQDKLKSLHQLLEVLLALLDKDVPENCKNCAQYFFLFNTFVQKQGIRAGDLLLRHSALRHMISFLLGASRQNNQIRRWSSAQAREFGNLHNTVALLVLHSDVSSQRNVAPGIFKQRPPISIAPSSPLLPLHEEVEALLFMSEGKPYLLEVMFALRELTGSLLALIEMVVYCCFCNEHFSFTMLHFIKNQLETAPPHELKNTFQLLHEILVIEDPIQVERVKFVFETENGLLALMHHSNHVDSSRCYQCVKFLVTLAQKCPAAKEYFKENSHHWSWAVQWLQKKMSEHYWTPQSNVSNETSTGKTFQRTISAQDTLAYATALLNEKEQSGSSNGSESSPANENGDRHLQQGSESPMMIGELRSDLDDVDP
UniProt Q9Y224: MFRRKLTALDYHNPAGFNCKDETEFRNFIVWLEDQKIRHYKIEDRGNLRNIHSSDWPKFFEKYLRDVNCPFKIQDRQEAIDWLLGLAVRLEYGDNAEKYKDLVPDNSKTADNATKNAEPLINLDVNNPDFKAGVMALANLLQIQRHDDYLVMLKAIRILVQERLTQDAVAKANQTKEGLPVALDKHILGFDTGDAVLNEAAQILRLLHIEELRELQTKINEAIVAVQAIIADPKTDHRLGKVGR
UniProt Q9UNS2: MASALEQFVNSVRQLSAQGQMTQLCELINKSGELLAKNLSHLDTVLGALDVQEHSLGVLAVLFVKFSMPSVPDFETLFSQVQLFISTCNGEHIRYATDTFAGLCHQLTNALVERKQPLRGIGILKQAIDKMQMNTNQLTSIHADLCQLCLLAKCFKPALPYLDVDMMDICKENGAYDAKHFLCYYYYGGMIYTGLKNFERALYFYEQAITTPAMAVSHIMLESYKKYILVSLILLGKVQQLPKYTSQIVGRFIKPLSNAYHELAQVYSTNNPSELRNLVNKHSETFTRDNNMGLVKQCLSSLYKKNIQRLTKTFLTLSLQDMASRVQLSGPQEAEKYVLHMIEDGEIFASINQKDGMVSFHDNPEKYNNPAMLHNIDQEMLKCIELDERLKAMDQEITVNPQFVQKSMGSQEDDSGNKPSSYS

compound: COC(=O)/C=C/c1ccccc1 [methyl cinnamate]; experiment: log2 ratio of iodoacetamide-alkyne labeling of the cysteine site, DMSO over compound (competition); higher = stronger covalent engagement of the cysteine by the compound, active = 1 or more; conditions: 500 µM; treatment time 1 h; system: HEK293T cell lysate
Method in brief: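 After 1 h at ambient temperature with vehicle or electrophile (500 µM), HEK293T lysate (2 mg/mL) was labelled for 1 h with iodoacetamide alkyne and clicked to sCIP-TMT reagents. Pooled samples were trypsin-digested overnight at 37 °C, streptavidin-enriched, acid-eluted and analysed by Orbitrap Eclipse LC-MS/MS with FAIMS, then quantified in FragPipe over three replicates with duplicate channels. A cysteine's log2 competition ratio is its mean control-channel over mean compound-channel reporter intensity. Cysteines quantified in only one replicate were not included.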

log2 ratio of iodoacetamide-alkyne labeling, inactive:
RUVBL1 C141 (UniProt Q9Y265) 0.477
USP22 C185 (UniProt Q9UPT9) -0.0563
HECTD1 C2195 (UniProt Q9ULT8) 0.611
UniProt Q9UIF8_C1223 -0.171
MYO6 C691 (UniProt Q9UM54) -0.327
HERC5 C994 (UniProt Q9UII4) -0.0849
NOP58 C106 (UniProt Q9Y2X3) -0.128
MTF2 C437 (UniProt Q9Y483) 0.148
RCL1 C13 (UniProt Q9Y2P8) -0.209
NOSIP C185 (UniProt Q9Y314) 0.336
USP24 C172 (UniProt Q9UPU5) 0.0685
ICE1 C1616 (UniProt Q9Y2F5) 0.331
DLGAP4 C736 (UniProt Q9Y2H0) 0.308
STUB1 C199 (UniProt Q9UNE7) 0.234
SH3GLB1 C121 (UniProt Q9Y371) 0.25
NOTCH3 C134 (UniProt Q9UM47) 0.0769
BAG5 C157 (UniProt Q9UL15) 0.292
UniProt Q9Y224_C19 0.214
HERC5 C468 (UniProt Q9UII4) 0.249
NOB1 C147 (UniProt Q9ULX3) 0.152
DDX20 C181 (UniProt Q9UHI6) 0.101
FCF1 C154 (UniProt Q9Y324) 0.19
TDRKH C109 (UniProt Q9Y2W6) 0.0902
NUDT5 C76 (UniProt Q9UKK9) 0.163
MRPS16 C41 (UniProt Q9Y3D3) -0.0519
GMEB2 C323 (UniProt Q9UKD1) -0.0237
DDX20 C98 (UniProt Q9UHI6) 0.249
COPS3 C383 (UniProt Q9UNS2) 0.0971
STUB1 C48 (UniProt Q9UNE7) 0.134
SLC25A13 C565 (UniProt Q9UJS0) 0.018
PSMD13 C182 (UniProt Q9UNM6) 0.175
RUVBL2 C227 (UniProt Q9Y230) 0.112
ACIN1 C1223 (UniProt Q9UKV3) 0.0534
NUP50 C181 (UniProt Q9UKX7) -0.234
MTO1 C77 (UniProt Q9Y2Z2) 0.0953
HECTD1 C1368 (UniProt Q9ULT8) 0.515
INO80 C13 (UniProt Q9ULG1) 0.13
